Results reported in paper PMC7596570.
These are yes or no findings as the source states them, for the method shown. Binding seen in cells or lysates may run through a third protein. Some entries that bind do so weakly or less than the wild type.

By UniProt entry, the sequences of proteins in these tests, tags left out. Residues count along the entry.
UniProt O14763, residues 56-440: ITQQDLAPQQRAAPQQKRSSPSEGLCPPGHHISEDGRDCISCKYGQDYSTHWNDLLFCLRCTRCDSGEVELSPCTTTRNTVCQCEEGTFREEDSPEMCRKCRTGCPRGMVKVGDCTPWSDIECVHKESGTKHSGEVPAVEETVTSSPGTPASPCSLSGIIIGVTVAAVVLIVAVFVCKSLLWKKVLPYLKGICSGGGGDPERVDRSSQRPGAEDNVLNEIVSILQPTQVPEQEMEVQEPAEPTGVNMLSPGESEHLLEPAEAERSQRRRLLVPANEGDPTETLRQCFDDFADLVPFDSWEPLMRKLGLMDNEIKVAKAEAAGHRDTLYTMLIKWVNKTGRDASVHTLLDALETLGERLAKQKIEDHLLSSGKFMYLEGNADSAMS
UniProt Q13158: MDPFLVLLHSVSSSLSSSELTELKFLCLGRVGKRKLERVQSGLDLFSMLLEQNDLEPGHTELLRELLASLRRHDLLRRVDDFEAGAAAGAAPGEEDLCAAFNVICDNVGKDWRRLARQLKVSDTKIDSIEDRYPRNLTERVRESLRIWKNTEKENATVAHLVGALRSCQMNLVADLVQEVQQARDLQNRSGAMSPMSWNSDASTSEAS

Biological target: TRAIL Death Receptor 5 (DR5) (human (endogenous in HCT116)) (UniProt O14763)
Experiment: co-IP; DR5-DISC IP: AMG 655 (agonistic anti-DR5 antibody)-conjugated Dynabeads added to HCT116 cells (untransfected, or transfected with FLAG-RALB constructs, or SC/siRALB) for the indicated times (1 h, 3 h); lysis in 0.2% NP-40, 20 mM Tris, 150 mM NaCl, 10% glycerol, pH 7.4; beads captured magnetically, western blot

For FADD (from UniProt Q13158 1-208), the binding was “binds”.
